Reference: PubChem BioAssay AID485298 (National Center for Advancing Translational Sciences (NCATS), 2010)
In all, about 320,000 compounds went through this assay and about 740 (0.23%) were called active. Inconclusive results, whose numbers are uncertain, are shown with a selection of clear calls. The call rests on the fitted dose curve; in most records, active means well fitted activation curve with a large enough effect; inconclusive means small, poorly fitted or top-dose-only effect; inactive means no such curve, though single readings can be large or run the other way. A potency beside an inconclusive call is a rough fit, not a confirmed value.

assay: qHTS Assay for Small Molecule Inhibitors of Mitochondrial Division or Activators of Mitochondrial Fusion; further: nearly all actives have a fitted effect of over 45% in size; on growth rescue (activation): % of control where 0% means no effect; details: S. cerevisiae fusion-defective mutant growth rescue, CellTiterGlo 48 h; growth rescue (activation): at 46.1 µM (top of the series) unless noted
How it was run: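 Temperature-sensitive fusion-defective S. cerevisiae (e.g. fzo1-1, mgm1-5) were grown with compound in YPEG medium (3% ethanol, 3% glycerol) for 48 hours at 37C. Growth rescue was measured as viability by CellTiterGlo luminescence after 10 minutes at ambient.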
Potency means the concentration at half of the fitted maximal effect.

SMILES	Potency	growth rescue (activation)
COc1ccc(N(C)C(=O)c2ccc3c(Cl)c4c(nc3c2)CCCC4)c(OC)c1	inconclusive: 25.1 µM [activator, single point]	
CS(=O)(=O)N(CC(=O)Nc1ccccc1Sc1ccccc1)C1CCCCC1	inconclusive: 7.08 µM [activator, partial curve, poor fit]	
O=C(Oc1ccc2c(=O)c(Oc3ccc4ccccc4c3)coc2c1)c1cccnc1	active: 15.8 µM	
COc1ccccc1CN(C)C(=O)c1cc(-c2cc(OC)c(OC)c(OC)c2)nc2ccccc12	inconclusive: 12.6 µM [activator, partial curve]	
Cc1ccc(OCC(=O)Nc2nnc(S(=O)(=O)N3CCC(C)CC3)s2)cc1	inconclusive: 5.62 µM [activator, partial curve]	
COCCN=C1NN=C(c2ccc(C)c([N+](=O)[O-])c2)CS1		inactive: -4%
Cc1ccc(S(=O)(=O)NCCC(=O)N2CCN(c3cccc(Cl)c3)CC2)cc1C	inconclusive: 12.6 µM [activator, partial curve]	
Cc1ccc(Cl)c(OCC(=O)Nc2cccnc2)c1	inconclusive: 5.62 µM [activator, single point]	
CCc1cccc(C)c1NC(=O)CN(C)Cc1ccc(Br)cc1	inconclusive: 35.5 µM [activator, single point]	
CCCCc1cc(=O)oc2cc(C)cc(OC(C)C(=O)NCc3ccncc3)c12 (centres undefined)		inactive: 4%
CC1CCCC(C)N1C(=O)CSc1nc(N)c(-c2ccccc2)c(=O)[nH]1 (centres undefined)	inconclusive: 3.16 µM [activator, single point]	
COc1ccccc1N1CCN(C(=O)c2ccc3c(Cl)c4c(nc3c2)CCCC4)CC1	inconclusive: 31.6 µM [activator, single point]	
O=C(NNC(=O)c1cccs1)c1ccc([N+](=O)[O-])cc1	inconclusive: 0.355 µM [activator, full curve, poor fit]	
O=C1C(NS(=O)(=O)c2ccccc2)=C(N2CCN(c3ccc(F)cc3)CC2)C(=O)c2ccccc21	inconclusive: 8.91 µM [activator, partial curve]	
CCCCc1ccc(Nc2ncnc3nc[nH]c23)cc1		inactive: 12.4%
Nc1ccc2oc(-c3ccccn3)nc2c1		inactive: -3.74%
c1ccc(-c2csc3ncnc(NCC4COc5ccccc5O4)c23)cc1 (centres undefined)	inconclusive: 17.8 µM [activator, single point]	
Cc1oc(-c2cc(Cl)cc(Cl)c2)cc1C(=O)NCCc1ccccc1	inconclusive: 11.2 µM [activator, partial curve]	
CCCCC(=O)N(CCOC)c1nnc(-c2ccccc2C)s1	inconclusive: 20 µM [activator, single point]	

One compound at a time, from the list above:
`Cc1ccc(Cl)c(OCC(=O)Nc2cccnc2)c1` is listed with Potency: inconclusive: 5.62 µM [activator, single point]
`Nc1ccc2oc(-c3ccccn3)nc2c1` is listed with growth rescue (activation): inactive: -3.74%
